The nature of this experiment: qHTS Assay for Lipid Storage Modulators in Drosophila S3 Cells.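 On cell number change: cells counted by Cell Tracker Red CMTPX staining in the red channel.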 Particulars: BODIPY lipid droplet fluorescence, 18-24 h; for cell number change: measured here: cell count max response, cells fed with added oleic acid. The method, boiled down:
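Drosophila S3 cells got compounds at several concentrations plus oleic acid (400 uM solution). Laser-scanning cytometry with 488 nm excitation read lipid droplets at 500-530 nm and cells at 575-640 nm. Percent activity was relative to 20 uM Triacsin C.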

The mark [1] stands for this setting: measured here: lipid fluorescence (Fed channel) AC50, cells fed with added oleic acid.
The mark [2] stands for this setting: measured here: cell number channel AC50, cells fed with added oleic acid.

The list shows a part of the results. Shown are side measurements of this screen, not its main read-out; they come without a call. Compounds called inactive in the main read-out are mostly missing here. Potencies come from curve fits of mixed quality, noted in brackets.

Turning to `CC(C)CC(=O)C1=C(O)C(=O)N(Cc2ccccc2)C1c1ccccc1` (centres undefined), the cell number change stood at 10.6%. In addition, the AC50 under setting [1] is 1.3 µM [rising, full curve].
Regarding `COC(=O)c1ccc2c(=O)n(CCCCCC(=O)N3CCN(c4ccccc4)CC3)c(=O)[nH]c2c1`, the cell number change came out at 66.4%. Under setting [2], the AC50 was 14.6 µM [rising, single point]. Under setting [1], the AC50 is 0.0651 µM [falling, full curve, poor fit].
For the compound `C/C(=N\NC(=O)c1cc2ccccc2cc1O)c1ccc(C)o1`, the cell number change was -36.1%. Besides, under setting [2], the AC50 was 29.1 µM [falling, single point].
`CC(=O)N1C(C)(C)CC(=NOC(=O)c2ccccc2)CC1(C)C`: the cell number change is -48.2%. Moreover, under setting [2], the AC50 was 32.6 µM [falling, single point]. Also, the AC50 under setting [1] was 11.6 µM [falling, partial curve].
Consider `CCC(C(=O)NC1C(=O)N2C(C(=O)O)=C(CSc3nnc(C)s3)CSC12)c1ccccc1` (centres undefined), for which the cell number change came out at 8.14%. Moreover, under setting [1], the AC50 is 29.1 µM [rising, single point].
`O=C(OC(C(=O)NCc1ccc(F)cc1)c1ccccc1)c1ccco1` (centres undefined): the cell number change amounted to 19.2%.
Consider `COCCN(C(=O)COC(=O)Cc1ccc(Cl)cc1Cl)c1c(N)n(Cc2ccccc2)c(=O)[nH]c1=O`, for which the cell number change was -10.1%. Also, under setting [1], the AC50 is 29.1 µM [falling, single point].
For the compound `Cc1ccc(OCCCC(=O)Nc2nccs2)cc1`, the cell number change is -30.8%.
With `O=C(C[n+]1ccc(/C=N/O)cc1)N1CCCCC1`, the cell number change was -33.1%. Under setting [2], the AC50 is 32.6 µM [falling, single point]. Also, under setting [1], the AC50 is 29.1 µM [falling, single point].
Take `O=C(CCN1C(=O)COc2ccccc21)NCCCN1CCc2ccccc2C1`: the cell number change is -17.9%. The AC50 under setting [2] is 0.651 µM [falling, full curve, poor fit]. Besides, under setting [1], the AC50 was 0.651 µM [falling, single point].
As for `O=C(Nc1ccsn1)c1ccc(Cl)cc1Cl`, the cell number change is 13.6%. Besides, the half-maximal activity concentration (AC50) under setting [1] is 4.61 µM [rising, partial curve, poor fit].
As for `CC(=O)c1cccc(CN2CCC(C(=O)Nc3ccc(Oc4cccnc4)cc3)CC2)c1`, the cell number change was 50.1%. Under setting [2], the AC50 is 23.1 µM [rising, single point]. Under setting [1], the AC50 is 0.58 µM [rising, full curve, poor fit].
As for `CCOC(=O)N1CCN(C(=O)Nc2ccc3nc(C)sc3c2)CC1`, the cell number change turned out to be 26.6%. The half-maximal activity concentration (AC50) under setting [1] was 10.3 µM [rising, partial curve, poor fit].
Turning to `O=S(=O)(c1ccccc1)c1ncc(C(F)(F)F)cc1O`, the cell number change was -21.7%. In addition, the AC50 under setting [2] was 0.13 µM [falling, full curve, poor fit]. For the same compound, the AC50 under setting [1] is 0.116 µM [falling, partial curve, poor fit].
On to `O=C(CC1(O)C(=O)Nc2cc(Cl)cc(Cl)c21)c1ccccc1O` (centres undefined), for which the cell number change was -45.2%. For the same compound, the half-maximal activity concentration (AC50) under setting [2] is 16.4 µM [falling, single point]. Besides, the AC50 under setting [1] was 16.4 µM [falling, single point].
Regarding `CC(Sc1nnc(NC2CCCCC2)s1)C(=O)Nc1ccc2c(c1)C(=O)c1ccccc1C2=O` (centres undefined), the cell number change was -3.7%. Further, the AC50 under setting [2] was 0.259 µM [falling, full curve, poor fit]. Under setting [1], the AC50 was 2.31 µM [rising, partial curve, poor fit].
As to `COC(=O)CCN(C1CCCCC1)S(=O)(=O)c1ccc(S(=O)(=O)N2CCCCC2)cc1`, the cell number change was found to be 0.651%.
For `O=c1c(-c2ccco2)[n+]([O-])c2ccccc2n1OCc1ccccc1F`, the cell number change came out at 10.1%. For the same compound, the concentration at half-maximal activity (AC50) under setting [2] is 2.91 µM [rising, partial curve, poor fit]. Further, the AC50 under setting [1] was 9.2 µM [rising, partial curve].
With `O=C(O)C(c1ccccc1)N1CCCCC1` (centres undefined), the cell number change is -14.7%.
`CCc1nnc(NC(=O)CSc2nnc(C)c(=O)n2N)s1`: the cell number change is -30.3%. Further, under setting [2], the AC50 was 7.31 µM [falling, partial curve]. Besides, the AC50 under setting [1] is 29.1 µM [falling, single point].
With `O=C(O)c1cccc(-n2sc3ccccc3c2=O)c1`, the cell number change was -85%. Moreover, the AC50 under setting [2] was 29.1 µM [falling, single point]. Moreover, the AC50 under setting [1] is 3.26 µM [falling, single point].
Regarding `CCc1ccc(C(=O)CSc2nc3ccccc3c(=O)[nH]2)cc1`, the cell number change was -41.1%. Besides, the AC50 under setting [2] was 1.46 µM [falling, partial curve].
For `N#CN=C(c1ccccc1)c1ccccc1`, the AC50 under setting [1] was 18.4 µM [falling, partial curve, poor fit].
On to `Cc1ccccc1SCC(=O)NNC(=O)c1ccncc1`, for which the cell number change stood at 23.8%. For the same compound, the AC50 under setting [1] was 0.00461 µM [rising, full curve, poor fit].
Turning to `O=C(CCc1nnc2ccc(NCCCN3CCCC3=O)nn12)NCc1ccccc1Cl`, the cell number change amounted to 28.1%. Further, the AC50 under setting [2] is 0.461 µM [rising, full curve, poor fit]. The AC50 under setting [1] is 0.92 µM [falling, single point].
As to `Cc1cc(C)nc(SCc2nnc(SCC(=O)Nc3ccccc3C)n2Cc2ccco2)n1`, the cell number change was 31.4%. Also, the AC50 under setting [2] is 0.231 µM [rising, full curve].
With `CC(=O)c1ccc(NC(=O)CSC(C)C)cc1`, the cell number change came out at 7.79%. The AC50 under setting [1] was 1.46 µM [falling, full curve, poor fit].
On to `CC(=O)NC1(C(F)(F)F)C(=O)Nc2c1c(=O)[nH]c(=O)n2CC(C)C` (centres undefined), for which the cell number change came to 105%.
As for `NC(N)=NS(=O)(=O)c1ccc(N)cc1`, the cell number change is -5.96%. For the same compound, under setting [1], the half-maximal activity concentration (AC50) was 29.1 µM [rising, single point].
For `Clc1ccc(-c2nnc(-c3ccc(Br)o3)o2)c(Cl)c1`, the cell number change turned out to be 17.6%. In addition, the AC50 under setting [2] was 6.51 µM [rising, single point].
On to `O=C(c1ccc(S(=O)(=O)NCc2ccco2)cc1)N1CCN(Cc2ccccc2)CC1`, for which the cell number change was -2.47%. Under setting [2], the AC50 is 0.651 µM [falling, partial curve, poor fit].
`O=c1cc(N2CCc3ccccc32)[nH]c(=O)n1Cc1ccc(F)cc1`: the cell number change worked out at 21.1%. Moreover, the AC50 under setting [2] was 2.06 µM [rising, full curve, poor fit].
On to `O=C(C1CCN(S(=O)(=O)c2cccc3nsnc23)CC1)N1CCc2ccccc21`, for which the cell number change turned out to be 14.1%. Also, the AC50 under setting [1] was 1.64 µM [falling, partial curve].
With `CCOC(=O)CSc1ccc2nnc(CCNS(=O)(=O)c3ccccc3)n2n1`, the cell number change is 10.7%. Moreover, the AC50 under setting [1] is 0.366 µM [rising, partial curve, poor fit].
Turning to `COc1ccccc1CN1C(=S)SC(C)(C)C1NO` (centres undefined), the AC50 by setting is: under setting [2], 1.03 µM [rising, partial curve, poor fit]; under setting [1], 6.51 µM [rising, single point].
For the compound `Cc1ccc(S(=O)(=O)N2[C@@H](c3cccc(Cl)c3)C(C(=O)O)=CC[C@H]2c2ccc(Cl)cc2)cc1`, the cell number change was 23.2%. In addition, the half-maximal activity concentration (AC50) under setting [2] was 3.66 µM [falling, single point].
Turning to `Cc1ccc(N(CC(=O)N2CCN(c3ccccc3F)CC2)S(=O)(=O)c2c(C)noc2C)cc1`, the cell number change stood at 15.4%. For the same compound, the concentration at half-maximal activity (AC50) under setting [1] is 29.1 µM [rising, single point].
With `COc1ccc(Cc2noc(-c3ccc(C)cc3)n2)cc1`, under setting [2], the AC50 is 2.59 µM [rising, partial curve].
Regarding `CCn1c(SCC(=O)Nc2cc(Cl)ccc2OC)nnc1C1CC1`, the cell number change turned out to be 21%.
Turning to `O=C(N/N=C/c1ccccc1OC(=O)c1ccc2c(c1)OCO2)c1cccc(F)c1`, the cell number change worked out at 28.4%. Also, the AC50 under setting [1] was 1.84 µM [rising, partial curve, poor fit].
For the compound `CCCN(CCC)c1nc(Cl)nc(NCCN2CCOCC2)n1`, the cell number change was -46.4%. Moreover, the AC50 under setting [1] is 3.66 µM [rising, single point].
On to `Cc1nn(Cc2ccccc2)c(C)c1C(=O)N1CCN(S(=O)(=O)/C=C/c2ccccc2)CC1`, for which the cell number change is -3.01%. Moreover, the AC50 under setting [1] is 0.517 µM [rising, single point].
Consider `CCCOc1cccc(C2C(C(=O)c3ccco3)=C(O)C(=O)N2CCN(CC)CC)c1` (centres undefined), for which the cell number change is -1.85%. Under setting [1], the AC50 is 0.58 µM [rising, single point].
Take `CCOc1ccc(C(=O)CCNC(Cc2cnc[nH]2)C(=O)O)cc1` (centres undefined): the cell number change is -33.3%. The AC50 under setting [1] is 29.1 µM [falling, single point].
In the case of `Cc1csc(C(C)N(C)C(=O)c2ccc(OC3CCN(Cc4ccccn4)CC3)cc2)n1` (centres undefined), the cell number change is -9.83%. In addition, the AC50 under setting [1] is 29.1 µM [falling, single point].
`CCN1C(=O)CSc2ccc(C(=O)NCc3ccc(OC)cc3)cc21`: the cell number change turned out to be 93%. The AC50 under setting [2] is 29.1 µM [rising, single point].
For the compound `Nc1nc(Sc2ccc([N+](=O)[O-])cc2[N+](=O)[O-])n[nH]1`, the cell number change was determined as 1.03%. Besides, the AC50 under setting [1] was 23.1 µM [falling, single point].
Turning to `COc1ccc(CCN(Cc2cccs2)S(=O)(=O)c2ccc(-n3cnnn3)c(OC)c2)cc1OC`, the AC50 under setting [1] was 0.259 µM [rising, partial curve, poor fit].
For the compound `Cc1ccc2nc(N(CCCN(C)C)C(=O)c3ccc(S(=O)(=O)N4CCc5ccccc5C4)cc3)sc2c1`, the cell number change is -40.7%. Besides, the AC50 under setting [2] is 13 µM [falling, partial curve, poor fit]. For the same compound, the AC50 under setting [1] was 16.4 µM [falling, partial curve].
As to `CC(C)OC(=O)CSc1nnc(Cc2ccccc2)n1C`, the cell number change was found to be 0.489%. Moreover, the AC50 under setting [1] is 0.82 µM [falling, full curve, poor fit].
`Cc1ccc(S(=O)(=O)N2CCCCC2)cc1NC(=O)COC(=O)c1ccc2c(c1)OCO2`: the cell number change turned out to be 23.5%. Also, the AC50 under setting [1] was 0.0517 µM [rising, full curve].
Turning to `COc1ccc(OC)c(NC(=O)Nc2cc(NC(=O)Nc3cc(OC)ccc3OC)c(C)nc2C)c1`, the cell number change was -10.3%. The AC50 under setting [1] is 9.2 µM [rising, partial curve, poor fit].
For the compound `Cc1ccc(-n2ccc(=O)c(-c3ccnc(SCc4cccc(Cl)c4)n3)n2)cc1`, the cell number change is -38.1%. In addition, under setting [2], the AC50 was 25.9 µM [falling, single point]. Also, the AC50 under setting [1] is 2.91 µM [falling, partial curve, poor fit].
For `O=C(CN1CCN(S(=O)(=O)c2cc(C(F)(F)F)ccc2Cl)CC1)N1CCc2ccccc2C1`, the cell number change amounted to 8.14%. Further, the concentration at half-maximal activity (AC50) under setting [1] was 6.51 µM [rising, single point].
Consider `Cc1nonc1C1CCCN1C(=O)c1cc(COc2cccc(C(F)(F)F)c2)on1` (centres undefined), for which, under setting [1], the AC50 was 6.51 µM [rising, single point].

The record behind these values is PubChem BioAssay AID2685 (National Center for Advancing Translational Sciences (NCATS), 2010).
